Results taken from PMC6992617.
Results are given in words; binding and its absence hold for the method and conditions named. In cells and extracts the contact can be indirect. Some binding calls cover weakened binding; strength is not graded here.

Chains of the proteins cited; added tags and fusions are not shown. Residues count along the entry.
UniProt P08581, residues 25-1390: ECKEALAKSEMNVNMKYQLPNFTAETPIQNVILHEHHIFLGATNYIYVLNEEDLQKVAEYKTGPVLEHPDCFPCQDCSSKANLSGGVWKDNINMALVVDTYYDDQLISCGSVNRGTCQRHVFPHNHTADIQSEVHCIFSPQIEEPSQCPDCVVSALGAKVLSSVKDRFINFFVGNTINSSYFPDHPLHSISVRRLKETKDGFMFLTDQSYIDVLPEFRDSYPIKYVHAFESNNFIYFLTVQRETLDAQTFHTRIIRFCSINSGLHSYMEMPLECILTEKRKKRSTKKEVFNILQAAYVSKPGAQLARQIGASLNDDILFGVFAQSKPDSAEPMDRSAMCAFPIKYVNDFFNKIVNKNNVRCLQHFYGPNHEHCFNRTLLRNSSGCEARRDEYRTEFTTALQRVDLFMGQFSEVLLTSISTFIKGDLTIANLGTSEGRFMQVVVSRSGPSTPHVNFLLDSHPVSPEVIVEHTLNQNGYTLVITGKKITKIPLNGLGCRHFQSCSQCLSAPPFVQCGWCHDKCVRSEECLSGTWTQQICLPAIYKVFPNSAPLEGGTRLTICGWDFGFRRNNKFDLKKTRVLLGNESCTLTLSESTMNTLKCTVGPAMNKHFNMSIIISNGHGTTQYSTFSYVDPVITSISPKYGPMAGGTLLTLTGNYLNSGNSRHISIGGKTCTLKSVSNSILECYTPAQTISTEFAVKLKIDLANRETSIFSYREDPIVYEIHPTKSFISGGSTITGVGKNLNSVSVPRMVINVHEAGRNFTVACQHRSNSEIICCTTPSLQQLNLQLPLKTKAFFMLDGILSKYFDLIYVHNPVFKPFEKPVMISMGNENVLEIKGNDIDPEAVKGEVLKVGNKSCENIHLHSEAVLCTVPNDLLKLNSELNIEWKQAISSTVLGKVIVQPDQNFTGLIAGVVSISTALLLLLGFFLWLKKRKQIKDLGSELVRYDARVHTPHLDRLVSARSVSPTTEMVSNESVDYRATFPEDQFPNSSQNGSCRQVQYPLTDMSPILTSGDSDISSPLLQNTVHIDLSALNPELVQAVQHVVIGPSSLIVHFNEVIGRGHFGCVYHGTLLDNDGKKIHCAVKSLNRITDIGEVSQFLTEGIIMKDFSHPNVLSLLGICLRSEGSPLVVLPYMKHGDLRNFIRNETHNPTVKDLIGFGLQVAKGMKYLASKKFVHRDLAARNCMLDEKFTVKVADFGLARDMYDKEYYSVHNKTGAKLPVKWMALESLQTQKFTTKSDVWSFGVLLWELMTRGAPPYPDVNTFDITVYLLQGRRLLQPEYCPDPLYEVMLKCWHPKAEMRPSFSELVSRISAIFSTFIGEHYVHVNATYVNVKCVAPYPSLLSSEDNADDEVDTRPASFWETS

Molecular target: mesenchymal-epithelial transition factor (human (endogenous in LN229R, U87MGR and HG9R)) (UniProt P08581)
Assay: cross-linking; lysates (1% Triton X-100 buffer) of TMZ-resistant glioma cells treated with or without BIP-MPC-NP; with or without 150 nM EGF and 100 ng/mL HGF for 30 min at room temperature; 40 mM glutaraldehyde for 1 min, stopped with 0.2 M glycine; 6% SDS-PAGE and Western blot

For “mesenchymal-epithelial transition factor (from UniProt P08581 25-1390) (receptor)”, the binding was “binds”.
